Results on 1 compound are retold here after patent publication US20120040389A1, “METHOD FOR DEMONSTRATION OF A MOLECULAR EVENT IN A CELL BY MEANS OF FLUORESCENT MARKER PROTEINS” (Institut National de la Sante et de la Recherche Medicale …, priority 2003, published 2012).

The test system of this test is Bax protein. Nature of the test: Bax activation: retention of GFP-Bax fluorescence after digitonin permeabilization, flow cytometry. Type of test: cell-based, human. Here is the method:
FIG. 11A-E represents the coupled measurement of Bax activation and the cell cycle. The clone 10 cells stably expressing the GFP-Bax fusion protein are treated with various drugs acting as pro-apoptotic agents and/or cytostatic agents. The measurement of Bax activation is carried out as described previously by evaluation of the retention of fluorescence after permeabilization with digitonin. In the permeabilization buffer, propidium iodide (0.4-0.8 mg/ml) was added and the cells were incubated for 30 minutes at 4° C. The distribution of the cells in the various phases of the cell cycle is read on the basis of their intensity of fluorescence in the red (PI). […] Moreover, it makes it possible to evaluate if Bax activation takes place in a preferential phase of the cell cycle.
The model implemented uses a clone designated “clone 10”. […]
The test is then based on the observation, under the fluorescence microscope or by flow cytometry, of the cells in which Bax is not activated and thus is distributed uniformly in the cytosol and of the cells in which Bax has been activated following an induction of apoptosis. […]
The cells are then resuspended in an intracellular saline solution in the presence of 50 μM of digitonin and then analyzed by flow cytometry and the fluorescence of the GFP is measured in channel FL1.
(A flow cytometer gives signals particle by particle.)

Molecules are shown by their SMILES.

Consider `CN[C@H]1CCc2cc(OC)c(OC)c(OC)c2-c2ccc(OC)c(=O)cc21` [colcemid], for which the “Bax activation in relation to the phase of the cell cycle” value is listed as “Bax activation in all phases of the cycle”.
